Test results as given in patent US20250346659A1 (ELASMOGEN, published 2025).
These are yes or no findings as the source states them, for the method shown. Some binding calls cover weakened binding; strength is not graded here.

Sequences of proteins named here, by UniProt entry; tags and fusion partners are left off. Residues count along the entry.
UniProt P01375, residues 77-233: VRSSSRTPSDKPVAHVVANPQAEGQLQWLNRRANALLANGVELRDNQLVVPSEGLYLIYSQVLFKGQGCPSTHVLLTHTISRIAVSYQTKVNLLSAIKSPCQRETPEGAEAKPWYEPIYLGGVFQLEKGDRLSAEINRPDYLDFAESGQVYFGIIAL

T1: Mouse TNF-alpha (mouse, UniProt P06804 80-235)
T1 construct: also called mouse TNFα
T1 sequence (looked up): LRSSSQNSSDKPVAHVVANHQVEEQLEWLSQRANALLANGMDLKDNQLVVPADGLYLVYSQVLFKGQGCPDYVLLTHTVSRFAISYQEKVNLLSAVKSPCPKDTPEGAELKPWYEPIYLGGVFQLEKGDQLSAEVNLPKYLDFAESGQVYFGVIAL


Legend:
[1] = target: T2, human Tumour Necrosis Factor alpha (human, UniProt P01375 77-233); assay: binding ELISA on TNFα (Anti-TNF NAR Dimers Binding ELISA, post dialysis), absorbance at 450 nm
T2 construct: Amine-coupled to the chip for BIAcore, biotinylated on streptavidin sensors for Octet, coated at 1 µg/ml for ELISA; also called hTNFα; rhTNFα

Mouse TNF-alpha = target: T1, Mouse TNF-alpha; assay: binding ELISA on mouse TNF-alpha, OD 450

binding (Mouse TNF-alpha) | Binder | binding [1]
– | B4-D1 (VNAR) ARVDQTPQTITKETGESLTINCVLRDSNCALSSMYWYRKKSGSTNEESISKGGRYVETVNSGSKSFSLRINDLTVEDSGTYRCKVYIPCIDELVYMISGGTSGPIHDVYGGGTVVTVNGGGGSGGGGGSGAHSARVDQTPQTITKETGESLPINCVLRDSHCATSSTYWYRKKSGSTNEESISKGGRYVETVNSGSKSFSLRINDLTVEDSGTYRCASECQYGLAEYDVYGGGTVVTVNAAAHHHHHHGAAEQKLISEEDL | binds
– | TNF VNAR DIMER D1-B4 (VNAR) ARVDQTPQTITKETGESLPINCVLRDSHCATSSTYWYRKKSGSTNEESISKGGRYVETVNSGSKSFSLRINDLTVEDSGTYRCASECQYGLAEYDVYGGGTVVTVNGGGGSGGGGGSGAHSARVDQTPQTITKETGESLTINCVLRDSNCALSSMYWYRKKSGSTNEESISKGGRYVETVNSGSKSFSLRINDLTVEDSGTYRCKVYIPCIDELVYMISGGTSGPIHDVYGGGTVVTVNAAAHHHHHHGAAEQKLISEEDL | binds
binds | TNF S17-Quad-X™ (Fc fusion, S17, mouse IgG2a Fc and S17 in one chain; also called S17-Fc-S17; S17-Fc-S17 (Quad-X™)) ASVNQTPRTATKETGESLTINCVLTDTHAKVFTTSWFRKNPGTTDWERMSIGGRYVESVNKGAKSFSLRIKDLTVADSATYICRAGGYLSQPRVYWDVYGAGTVLTVNGGGGSGGGGRTEPRGPTIKPCPPCKCPAPNLLGGPSVFIFPPKIKDVLMISLSPIVTCVVVDVSEDDPDVQISWFVNNVEVHTAQTQTHREDYNSTLRVVSALPIQHQDWMSGKEFKCKVNNKDLPAPIERTISKPKGSVRAPQVYVLPPPEEEMTKKQVTLTCMVTDFMPEDIYVEWTNNGKTELNYKNTEPVLDSDGSYFMYSKLRVEKKNWVERNSYSCSVVHEGLHNHHTTKSFSRTPGKGGGGSGGGGSGGGGSGGGGSGAHSASVNQTPRTATKETGESLTINCVLTDTHAKVFTTSWFRKNPGTTDWERMSIGGRYVESVNKGAKSFSLRIKDLTVADSATYICRAGGYLSQPRVYWDVYGAGTVLTVN | –
